PubChem BioAssay AID1224830 | NIAID | 2016

Aim: 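Genes whose knock-down alters the TNF-alpha reporter response to LPS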 (primary screen)
Cell system: human THP-1 monocytic leukaemia cells, TNF dual-luciferase reporter clone, PMA-differentiated to macrophage-like cells
Reagent: siRNA pool against human genes, 50 nM
Timing: LPS for 4 h, given about 3 days after siRNA transfection
Treatment: bacterial LPS (TLR4 ligand), 10 ng/ml
Measured: 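Ratio of firefly to renilla light, scaled to the plate median and expressed as a robust z-score per replicate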
Scale: TNF reporter robust z-score: higher = stronger TNF reporter response to LPS
Call rule: 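Each well counts as active if its z-score is over 2.8 or under -1.5; controls are left without a call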
Shown is an unselected part of about 18,000 deposited reagents. In the full data, about 2,900 (16%) got an active call. 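Calls are made per well; low scores hint the gene aids the LPS response, high scores that it dampens it.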 Repeated entries: four replicate wells of each siRNA pool.

The first 6 entries, to show the layout:
gene knocked down	TNF reporter robust z-score	Outcome
ECI1	-1.05	inactive
ECI1	-0.23	inactive
ECI1	-1.12	inactive
ECI1	0.07	inactive
EMC9	1.26	inactive
EMC9	1.42	inactive

Main list, repeating the preview:
gene knocked down	TNF reporter robust z-score	Outcome
ECI1	-1.05	inactive
ECI1	-0.23	inactive
ECI1	-1.12	inactive
ECI1	0.07	inactive
EMC9	1.26	inactive
EMC9	1.42	inactive
EMC9	0.84	inactive
EMC9	-0.29	inactive
PLCB3	-0.12	inactive
PLCB3	-0.72	inactive
PLCB3	-0.79	inactive
PLCB3	0.15	inactive
DIRAS3	6.73	active
DIRAS3	3.26	active
DIRAS3	2.59	inactive
DIRAS3	3.28	active
ATE1	0.57	inactive
ATE1	1.17	inactive
ATE1	-0.27	inactive
ATE1	0.75	inactive
CDH11	2.16	inactive
CDH11	1.89	inactive
CDH11	0.79	inactive
CDH11	0.8	inactive
MAPRE2	-0.09	inactive
MAPRE2	-0.22	inactive
MAPRE2	0.1	inactive
MAPRE2	-0.02	inactive
RPL13	1.63	inactive
RPL13	-0.05	inactive
RPL13	1.37	inactive
RPL13	1.39	inactive
ZNF266	1.46	inactive
ZNF266	0.99	inactive
ZNF266	0.69	inactive
ZNF266	0.7	inactive
PIGB	1.26	inactive
PIGB	0.12	inactive
PIGB	0.21	inactive
PIGB	1.21	inactive
ATRN	-0.22	inactive
ATRN	1.13	inactive
ATRN	-1.03	inactive
ATRN	-0.23	inactive
PIK3IP1	-0.47	inactive
PIK3IP1	1.76	inactive
PIK3IP1	0.38	inactive
PIK3IP1	0.26	inactive
